The text below walks through data of article PMC9909879.

The chains behind the UniProt entries cited, without tags or fusion partners. Residues count along the entry.
UniProt Q13308, 31-1070: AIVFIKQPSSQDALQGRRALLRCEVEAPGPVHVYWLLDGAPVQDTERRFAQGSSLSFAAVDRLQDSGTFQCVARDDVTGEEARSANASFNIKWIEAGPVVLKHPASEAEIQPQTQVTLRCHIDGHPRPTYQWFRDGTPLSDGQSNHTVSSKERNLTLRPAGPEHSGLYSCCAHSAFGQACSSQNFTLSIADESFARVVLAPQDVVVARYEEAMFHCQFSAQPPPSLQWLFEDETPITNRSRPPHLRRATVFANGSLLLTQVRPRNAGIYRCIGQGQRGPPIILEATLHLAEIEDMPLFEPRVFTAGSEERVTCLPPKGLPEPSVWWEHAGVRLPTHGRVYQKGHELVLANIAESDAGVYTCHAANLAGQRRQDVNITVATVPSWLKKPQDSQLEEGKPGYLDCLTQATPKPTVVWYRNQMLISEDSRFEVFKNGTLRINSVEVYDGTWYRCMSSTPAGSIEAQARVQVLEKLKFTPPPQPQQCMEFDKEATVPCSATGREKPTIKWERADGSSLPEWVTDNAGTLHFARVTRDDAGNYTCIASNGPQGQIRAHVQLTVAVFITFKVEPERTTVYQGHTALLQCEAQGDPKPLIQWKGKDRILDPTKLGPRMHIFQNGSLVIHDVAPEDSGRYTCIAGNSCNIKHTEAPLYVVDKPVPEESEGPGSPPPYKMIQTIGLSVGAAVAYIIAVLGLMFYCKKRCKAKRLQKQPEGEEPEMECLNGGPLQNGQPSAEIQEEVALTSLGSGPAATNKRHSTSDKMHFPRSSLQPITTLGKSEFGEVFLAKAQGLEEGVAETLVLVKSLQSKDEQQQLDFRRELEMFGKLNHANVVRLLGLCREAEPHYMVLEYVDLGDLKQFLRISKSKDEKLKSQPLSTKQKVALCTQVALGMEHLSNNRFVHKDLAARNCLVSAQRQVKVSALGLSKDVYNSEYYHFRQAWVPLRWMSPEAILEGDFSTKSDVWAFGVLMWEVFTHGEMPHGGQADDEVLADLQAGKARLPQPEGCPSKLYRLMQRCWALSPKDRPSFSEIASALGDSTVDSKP

This series deals with PTK-7 receptor (UniProt Q13308). Kind of series: flow cytometry (cell binding/uptake). The note with it: on AuNPs-DNS, 1 nM particles, MCF-7 cells, 6 h, 5'-SH, 1 nM Cy5-labeled AuNPs-DNS with cells in a glass dish, 37 °C, salt and pH not given, protein on the cell surface. On the technique in general: In flow cytometry, cells or beads pass a laser one at a time.

The exact form of at least one protein or probe is not confirmed. Where cells or extracts were used, other partners may take part. No signal at the amounts used counts as a negative. At least one verdict rests on a figure or table, not on a statement of the authors.

Regarding “TTTTTTTTTTTTTTTTTTTTCACTACAGAGGTTGCGTCTGTCCCACGTTGTCATGGGGGGTTGGCCTG [AptamerCy5 (Sgc8)]”, where the note is “includes internalization, PBS wash x3, medium, label: 3'-Cy5, single-stranded DNA”, the binding result is listed as “binds”.
Consider “TTTTTTTTTTTTTTTTTTTTGATGCAATTCCACTAATCAACCGTCCAAATTTCAGGTGATTACTGCAT [ControlCy5 (random sequence)]”, for which, under “negligible Cy5 fluorescence, PBS wash x3, medium, label: 3'-Cy5, single-stranded DNA”, the binding result is “no binding”.
